The assay deals with ezrin (UniProt P15311). As to the kind of experiment: co-IP.

Amino acid sequences for entries named in this document (tags omitted). Residues count along the entry.
UniProt P15311: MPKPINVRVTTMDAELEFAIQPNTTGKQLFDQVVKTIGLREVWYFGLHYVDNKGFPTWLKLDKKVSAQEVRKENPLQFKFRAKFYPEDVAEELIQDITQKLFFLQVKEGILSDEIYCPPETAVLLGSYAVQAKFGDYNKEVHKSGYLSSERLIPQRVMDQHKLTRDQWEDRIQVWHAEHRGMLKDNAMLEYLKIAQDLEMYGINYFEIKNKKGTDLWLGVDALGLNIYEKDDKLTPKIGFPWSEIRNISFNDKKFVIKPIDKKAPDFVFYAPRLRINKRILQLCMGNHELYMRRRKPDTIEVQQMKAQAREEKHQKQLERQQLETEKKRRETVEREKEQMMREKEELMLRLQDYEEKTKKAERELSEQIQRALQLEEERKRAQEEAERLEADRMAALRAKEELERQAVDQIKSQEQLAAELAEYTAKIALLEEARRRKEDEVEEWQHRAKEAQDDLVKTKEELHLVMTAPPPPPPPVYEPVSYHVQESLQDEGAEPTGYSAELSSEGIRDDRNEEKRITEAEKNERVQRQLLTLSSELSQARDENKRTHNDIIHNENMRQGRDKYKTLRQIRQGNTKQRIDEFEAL
UniProt P03522, residues 17-511: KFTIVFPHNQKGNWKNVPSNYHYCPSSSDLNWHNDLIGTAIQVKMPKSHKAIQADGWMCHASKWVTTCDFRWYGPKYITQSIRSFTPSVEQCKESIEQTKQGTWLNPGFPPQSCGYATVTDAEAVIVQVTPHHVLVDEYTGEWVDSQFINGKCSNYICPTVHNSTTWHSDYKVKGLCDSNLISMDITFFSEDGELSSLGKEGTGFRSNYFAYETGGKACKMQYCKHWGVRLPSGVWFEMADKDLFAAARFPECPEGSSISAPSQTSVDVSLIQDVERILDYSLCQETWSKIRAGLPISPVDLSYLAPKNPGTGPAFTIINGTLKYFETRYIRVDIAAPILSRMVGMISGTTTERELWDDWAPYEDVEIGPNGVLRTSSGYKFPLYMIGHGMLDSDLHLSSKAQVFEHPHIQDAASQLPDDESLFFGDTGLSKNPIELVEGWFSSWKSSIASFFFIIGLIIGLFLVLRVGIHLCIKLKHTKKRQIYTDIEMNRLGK

No constants are given. Whether binding was seen depends on the method and setting. In cells and extracts the contact can be indirect.

“Vesicular stomatitis virus glycoprotein (from UniProt P03522 17-511)”: the binding entry is reported as “no binding”.

Values taken from paper PMC7201057.
